This note sets out measurements from patent US20160108390A1.

No constants are given. Whether binding was seen depends on the method and setting. Some results given as binding are weak or reduced against the parent protein; the word gives no strength. Tags and fused reporters may be left off the sequences shown.

For the assay, the target named is recombinant human superoxide dismutase 3 (rhSOD3), full length, C-terminal His6 tag (human) (UniProt P08294). Nature of the assay: non-reducing SDS-PAGE of the purified protein (self-association).

B1: recombinant human superoxide dismutase 3 (rhSOD3), full length, C-terminal His6 tag (enzyme)
chain: WTGEDSAEPNSDSAEWIRDMYAKVTEIWQEVMQRRDDDGTLHAACQVQPSATLDAAQPRVTGVVLFRQLAPRAKLDAFFALEGFPTEPNSSSRAIHVHQFGDLSQGCESTGPHYNPLAVPHPQHPGDFGNFAVRDGSLWRYRAGLAASLAGPHSIVGRAVVVHAGEDDLGRGGNQASVENGNAGRRLACCVVGVCGPGLWERQAREHSERKKRRRESECKAAHHHHHH
With B1, the binding entry is reported as “binds”.
